From US20060172958A1, “Phospholipid scramblase 3” (priority 2003, published 2006)
These are yes or no findings as the source states them, for the method shown. In cells and extracts the contact can be indirect. Some results given as binding are weak or reduced against the parent protein; the word gives no strength. Tags and fused reporters may be left off the sequences shown.

Protein sequences, listed by entry. Tags and fused reporters are not part of them. Lines headed by an entry give the natural chain unless they say otherwise; changes in a name come on top.
UniProt Q9NRY6: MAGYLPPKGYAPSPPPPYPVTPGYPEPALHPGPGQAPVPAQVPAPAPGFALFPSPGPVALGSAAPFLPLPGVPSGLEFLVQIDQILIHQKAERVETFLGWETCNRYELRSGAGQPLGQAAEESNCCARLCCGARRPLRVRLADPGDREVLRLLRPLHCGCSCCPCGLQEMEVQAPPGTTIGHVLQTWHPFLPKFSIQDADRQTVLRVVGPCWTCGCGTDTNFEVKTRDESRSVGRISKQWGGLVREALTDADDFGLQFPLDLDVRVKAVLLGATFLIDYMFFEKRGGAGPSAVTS

How the values were obtained:
[1] = target: phospholipid scramblase 3 alpha (PLS3α) (human) (UniProt Q9NRY6); experiment: co-immunoprecipitation from 293T cells with PLS3 antibody, Western blot with GFP antibody
[2] = target: phospholipid scramblase 3 alpha (PLS3α) (human) (UniProt Q9NRY6); experiment: co-immunoprecipitation from 293T cell lysates with polyclonal PLS3 antibody, Western blot with EGFP monoclonal antibody
[3] = target: phospholipid scramblase 3 alpha (PLS3α) (human) (UniProt Q9NRY6); experiment: restates the co-immunoprecipitation and yeast two-hybrid results

Measured: binding

B1: EGFP-Bcl-B fusion protein (protein, human, UniProt Q9HD36 1-204, looked up, not shown: large carriers)
chain: MVDQLRERTTMADPLRERTELLLADYLGYCAREPGTPEPAPSTPEAAVLRSAAARLRQIHRSFFSAYLGYPGNRFELVALMADSVLSDSPGPTWGRVVTLVTFAGTLLERGPLVTARWKKWGFQPRLKEQEGDVARDCQRLVALLSSRLMGQHRAWLQAQGGWDGFCHFFRTPFPLAFWRKQLVQAFLSCLLTTAFIYLWTRLL
binds: all assays above
